This passage reports IC50 results from paper PMC7980221 (Molecular Cell, 2021).

Sequences of proteins named here, by UniProt entry; tags and fusion partners are left off. A change or cut given only in a name is not applied to a line headed by its entry.
UniProt A0L5S6: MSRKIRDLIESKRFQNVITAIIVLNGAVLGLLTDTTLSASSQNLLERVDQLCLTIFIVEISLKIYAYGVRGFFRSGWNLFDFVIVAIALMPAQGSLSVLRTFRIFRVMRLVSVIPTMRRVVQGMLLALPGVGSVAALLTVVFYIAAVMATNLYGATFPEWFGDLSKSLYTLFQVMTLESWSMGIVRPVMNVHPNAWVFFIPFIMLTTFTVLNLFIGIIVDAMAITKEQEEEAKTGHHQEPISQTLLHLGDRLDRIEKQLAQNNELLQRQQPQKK

pIC50: −log10 of the molar value.

The target in this test is NavMs (Magnetococcus marinus, UniProt A0L5S6). Briefly: cell-based.

`CC/C(=C(\c1ccccc1)c1ccc(OCCN(C)C)cc1)c1ccccc1` [Tamoxifen] had a pIC50 of 6.08.

What is called pIC50 is −log10 of the IC50, conventionally taken in molar units.
